Laboratory results published in article doi:10.1101/2023.07.25.550448.
Results are given in words; binding and its absence hold for the method and conditions named. For some of these results: In cells and extracts the contact can be indirect. Some binding calls cover weakened binding; strength is not graded here. For some of these results: Where a sequence is shown, tags or fusion partners need not be part of it.

Sequences of proteins named here, by UniProt entry; tags and fusion partners are left off. A change or cut given only in a name is not applied to a line headed by its entry. A line that says so, or that is headed by a name, gives the form on record, which may keep a tag or linker.
His6-p97 Y143A (P55072, form named): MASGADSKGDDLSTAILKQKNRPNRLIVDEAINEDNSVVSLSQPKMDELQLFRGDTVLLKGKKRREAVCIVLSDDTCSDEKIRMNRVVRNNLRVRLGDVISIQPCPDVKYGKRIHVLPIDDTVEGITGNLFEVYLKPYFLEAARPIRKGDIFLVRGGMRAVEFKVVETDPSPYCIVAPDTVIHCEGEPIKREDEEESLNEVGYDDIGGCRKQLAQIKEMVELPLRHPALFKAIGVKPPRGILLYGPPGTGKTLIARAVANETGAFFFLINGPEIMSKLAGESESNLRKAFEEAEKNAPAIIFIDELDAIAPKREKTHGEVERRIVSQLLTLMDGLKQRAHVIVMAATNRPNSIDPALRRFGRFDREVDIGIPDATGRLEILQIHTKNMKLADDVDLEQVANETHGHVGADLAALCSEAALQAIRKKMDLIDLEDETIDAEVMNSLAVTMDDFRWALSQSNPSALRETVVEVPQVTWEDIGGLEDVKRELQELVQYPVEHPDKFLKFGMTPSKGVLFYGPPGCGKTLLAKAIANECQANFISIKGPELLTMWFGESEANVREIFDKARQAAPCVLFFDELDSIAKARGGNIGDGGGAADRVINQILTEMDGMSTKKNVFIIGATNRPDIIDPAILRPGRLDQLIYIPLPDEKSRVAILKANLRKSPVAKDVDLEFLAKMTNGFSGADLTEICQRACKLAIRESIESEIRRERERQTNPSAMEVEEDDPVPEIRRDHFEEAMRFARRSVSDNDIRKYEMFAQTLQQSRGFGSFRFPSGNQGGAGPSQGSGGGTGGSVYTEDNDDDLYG

What was measured:
His6-p47 = target: T1, His6-p47 (UniProt Q9UNZ2); assay: co-IP
T1 sequence: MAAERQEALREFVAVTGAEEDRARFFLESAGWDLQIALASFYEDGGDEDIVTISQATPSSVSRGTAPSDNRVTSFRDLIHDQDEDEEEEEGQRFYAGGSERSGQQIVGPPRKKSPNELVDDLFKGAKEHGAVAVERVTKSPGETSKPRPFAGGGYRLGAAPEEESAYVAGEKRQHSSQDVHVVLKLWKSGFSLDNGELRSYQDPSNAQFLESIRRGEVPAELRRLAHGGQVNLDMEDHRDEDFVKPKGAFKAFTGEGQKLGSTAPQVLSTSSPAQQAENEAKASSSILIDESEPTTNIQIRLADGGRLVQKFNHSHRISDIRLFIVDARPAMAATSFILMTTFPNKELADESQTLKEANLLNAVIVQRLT

VCF1-2 peptide (human) = assay: pull-down
VCF1-4 peptide (human) = assay: pull-down
VCF1-1 peptide (human) = assay: pull-down
VCF1-5 peptide (human) = assay: pull-down
VCF1-3 peptide (human) = assay: pull-down

binding (His6-p47)	binding (VCF1-2 peptide (human))	binding (VCF1-4 peptide (human))	binding (VCF1-1 peptide (human))	binding (VCF1-5 peptide (human))	binding (VCF1-3 peptide (human))	Substance
binds	–	–	–	–	–	His6-p97 WT (from UniProt P55072 1-806)
binds	–	–	–	–	–	His6-p97 Y143A (from UniProt P55072 1-806)
–	no binding	no binding	no binding	no binding	no binding	p97 (endogenous, U2OS) (from UniProt P55072 1-806)
